Laboratory results as given in PubChem BioAssay AID540276 (National Center for Advancing Translational Sciences (NCATS), 2011).
Screen size: about 300,000 compounds; about 5,400 (1.8%) were called active. The inconclusive results got no clear call from the source; some entries with a clear call stand among them for comparison. The call rests on the fitted dose curve; tested in HEK293 cells. Where the call is inconclusive, the potency comes from a doubtful curve fit.

Experiment: qHTS for inhibitors of binding or entry into cells for Marburg Virus
Conditions: Marburg virus pseudotyped entry inhibition, cell reporter; activity change, negative = inhibition: at 37.8 µM (top of the series) unless noted
On the % scale 0 is the no-effect control and ±100 the full control effect; potency means the concentration at half of the fitted maximal effect.

**Q.** For `S=C1NC(c2ccccc2)=CC(c2ccccc2)N1` (stereo not drawn), which “activity change, negative = inhibition” value is on record?
**A.** inactive: 9.6% [at 46.1 µM]

**Q.** Which Potency does the source give for `Cc1ccc(NC(=O)CCN2C(=O)c3ccccc3S2(=O)=O)cc1F` here?
**A.** inconclusive: 1.26 µM [activator, partial curve, poor fit]

**Q.** For `Cc1ccc(N(CCCCN2C(=O)c3ccccc3C2=O)C(=O)c2cccc([N+](=O)[O-])c2)cc1`, which “activity change, negative = inhibition” value is on record?
**A.** inactive: -8.84%

**Q.** For `Cc1cc(NC(=O)CN2CCOCC2)n(-c2nc3ccccc3s2)n1`, which Potency is on record?
**A.** inconclusive: 18.3 µM [inhibitor, partial curve]

**Q.** Which “activity change, negative = inhibition” value does the source give for `CCOC(=O)c1c(NC(=O)Nc2cccc(Cl)c2)sc(C)c1C` here?
**A.** inactive: -21.1%

**Q.** Which Potency does the source give for `CC(C)C(NC(=O)c1ccccc1F)C(=O)NCC(c1ccco1)N1CCCCC1` (stereo not drawn) here?
**A.** inconclusive: 31.6 µM [inhibitor, single point]

**Q.** Which “activity change, negative = inhibition” value does the source give for `COC(=O)c1c(-c2cccs2)csc1NC(=O)COc1ccc(C(C)(C)C)cc1` here?
**A.** inactive: 4.73% [at 46.1 µM]

**Q.** For `COc1ccc(NC(=O)c2ccc(-c3ccccc3)cc2)cc1NS(=O)(=O)c1ccc(F)cc1`, which Potency is on record?
**A.** inconclusive: 15.8 µM [inhibitor, partial curve, poor fit]

**Q.** Which Potency does the source give for `C[C@@H](ON=C1[C@H]2CCn3c(=O)n(-c4ccccc4)c(=O)n3[C@@H]2[C@H](O)[C@@H]2O[C@H]12)c1cn([C@@H]2COC[C@@H]2O)nn1` here?
**A.** inconclusive: 0.75 µM [activator, single point]

**Q.** For `CCC1CCCCN1C(=O)CSC1=NN2CCCC(=O)N=C2S1` (stereo not drawn), which Potency is on record?
**A.** inconclusive: 11.2 µM [activator, partial curve, poor fit]

**Q.** For `COc1ccc(COCC(O)CN(Cc2ccccc2)C(C)C)cc1OC` (stereo not drawn), which Potency is on record?
**A.** inconclusive: 29.1 µM [inhibitor, single point]

**Q.** For `O=c1c2ccccc2nc(SCCN2CCOCC2)n1CCc1ccccc1`, which Potency is on record?
**A.** inconclusive: 35.5 µM [inhibitor, single point]

**Q.** For `CCN1C(=O)c2ccccc2Sc2ccc(C(=O)NCCCN(CC(C)C)CC(C)C)cc21`, which Potency is on record?
**A.** inconclusive: 35.5 µM [inhibitor, single point]

**Q.** Which “activity change, negative = inhibition” value does the source give for `O=C1CCCN1CCC1CCN(C2CC(=O)N(Cc3ccc(N4CCCC4=O)cc3)C2=O)CC1` (stereo not drawn) here?
**A.** inactive: -19.5%

**Q.** For `CC(=O)c1cccc(NC(=O)C2CC(=O)N(c3cccc(C)c3C)C2)c1` (stereo not drawn), which “activity change, negative = inhibition” value is on record?
**A.** inactive: -10.1%

**Q.** For `CCOc1ccc(N2C(=O)CC(N(Cc3ccco3)C(=O)CC)C2=O)cc1` (stereo not drawn), which “activity change, negative = inhibition” value is on record?
**A.** inactive: 16.5%

**Q.** For `O=C(Nc1ccc(-c2cn3ccccc3n2)cc1)c1cccs1`, which Potency is on record?
**A.** active: 14.6 µM

**Q.** Which “activity change, negative = inhibition” value does the source give for `COc1cccc2c(=O)c(C(=O)NCc3cccs3)c[nH]c12` here?
**A.** inactive: 8.35%

**Q.** With `CCOc1ccccc1C(=O)N(Cc1ccco1)C1CCS(=O)(=O)C1` (stereo not drawn) as the molecule, how does the Potency read?
**A.** inconclusive: 0.708 µM [inhibitor, full curve, poor fit]

**Q.** Which “activity change, negative = inhibition” value does the source give for `Cc1ccc(CSc2nnc(-c3ccc(NS(=O)(=O)c4ccccc4)cc3)o2)cc1` here?
**A.** inactive: -26.1%

**Q.** Which Potency does the source give for `COc1cc(OC)c(OC)cc1CN1CCN(Cc2cccn2C)CC1` here?
**A.** active: 20.6 µM

**Q.** With `CC(=O)c1cccc(NC(=O)C(C)OC(=O)c2cc(C)oc2C)c1` (stereo not drawn) as the molecule, how does the Potency read?
**A.** inconclusive: 0.562 µM [activator, single point]

**Q.** With `COc1cc(NC(=O)C2=C(N3CCOCC3)/C(=C\c3ccc(Br)cc3)CC2)cc(OC)c1OC` as the molecule, how does the Potency read?
**A.** inconclusive: 35.5 µM [activator, single point]

**Q.** For `O=C(C[n+]1cccc(CNC(=O)c2ccc(OC(F)F)cc2)c1)Nc1ccc(SC(F)F)cc1`, which Potency is on record?
**A.** inconclusive: 35.5 µM [activator, single point]

**Q.** Which Potency does the source give for `Cc1ccc(S(=O)(=O)N2CCOCC2)cc1C(=O)OCC(=O)Nc1ccc2[nH]c(=O)[nH]c2c1` here?
**A.** inconclusive: 6.31 µM [inhibitor, single point]

**Q.** With `CC(C)CC1c2[nH]c3ccccc3c2CCN1CCCn1cccn1` (stereo not drawn) as the molecule, how does the Potency read?
**A.** active: 4.47 µM

**Q.** Which Potency does the source give for `O=C(CSc1nnc(-c2ccccn2)o1)Nc1ccccc1F` here?
**A.** inconclusive: 20 µM [inhibitor, single point]

**Q.** For `Cc1ccc2c(c1)C1CN(C)CCC1N2S(=O)(=O)c1cccc(F)c1` (stereo not drawn), which Potency is on record?
**A.** inconclusive: 6.31 µM [activator, single point]

**Q.** Which Potency does the source give for `CCOC(=O)c1cccc(NC(=O)[C@@H](c2ccccc2)N2Cc3ccccc3C2=O)c1` here?
**A.** inconclusive: 3.55 µM [inhibitor, single point]

**Q.** With `CCN(CC#CCC(O)(c1ccccc1)c1ccccc1)C(C)C` as the molecule, how does the Potency read?
**A.** inconclusive: 23.1 µM [inhibitor, single point]

**Q.** For `Cc1ccc(S(=O)(=O)N2CCOCC2)cc1NC(=O)COc1ccccc1Cc1ccccc1`, which Potency is on record?
**A.** inconclusive: 0.316 µM [inhibitor, full curve, poor fit]

**Q.** With `Brc1ccc2oc3c(N4CCOCC4)ncnc3c2c1` as the molecule, how does the Potency read?
**A.** inconclusive: 1.26 µM [inhibitor, single point]

**Q.** Which Potency does the source give for `C=CCOc1ccc(CN(C)c2ccc(S(=O)(=O)N3CCN(C)CC3)cc2[N+](=O)[O-])cc1` here?
**A.** inconclusive: 35.5 µM [inhibitor, single point]

**Q.** For `CCC(c1nnnn1C(C)(C)CC)N1CCN(c2ccccc2F)CC1` (stereo not drawn), which Potency is on record?
**A.** inconclusive: 8.91 µM [inhibitor, partial curve, poor fit]

**Q.** Which Potency does the source give for `O=C1C=CC(=Nc2cccc3c2C(=O)c2ccccc2-3)O1` here?
**A.** inconclusive: 7.94 µM [activator, partial curve, poor fit]

**Q.** For `Cc1ccc(S(=O)(=O)Nc2ccc(Cl)cc2C(=O)c2ccc(F)cc2)cc1`, which Potency is on record?
**A.** inconclusive: 35.5 µM [activator, single point]

**Q.** Which Potency does the source give for `O=C(COc1ccc2c(-c3ccccc3)cc(=O)oc2c1)Nc1ccc(CN2CCOCC2)cc1` here?
**A.** inconclusive: 6.31 µM [inhibitor, single point]

**Q.** Which “activity change, negative = inhibition” value does the source give for `COCCn1c(C)cc2c(c1=O)C(c1ccccc1F)C(C#N)=C(N)O2` (stereo not drawn) here?
**A.** inactive: 27.9%

**Q.** For `Cc1ccc(S(=O)(=O)N2CCC(C(=O)Nc3ccc(N4CCOCC4)cc3)CC2)cc1C`, which “activity change, negative = inhibition” value is on record?
**A.** inactive: 17.9%

**Q.** Which Potency does the source give for `CCN1CCN(c2cc(C)c3cc(NC(=S)N4CCCCC4)ccc3n2)CC1` here?
**A.** inconclusive: 31.6 µM [inhibitor, single point]

**Q.** For `Cc1ccc([N+](=O)[O-])c2c1C(N1CC(C)OC(C)C1)C(C)(C)O2` (stereo not drawn), which Potency is on record?
**A.** inconclusive: 10 µM [inhibitor, partial curve, poor fit]

**Q.** For `Cc1ccc(CNC(=O)c2ccc(Cn3nc(C)c(Cl)c3C)o2)cc1`, which Potency is on record?
**A.** inconclusive: 22.4 µM [inhibitor, single point]

**Q.** With `CCOc1ccccc1C(=O)Nc1ccc2nc(N(CC)CC)cc(C)c2c1` as the molecule, how does the Potency read?
**A.** inconclusive: 11.2 µM [activator, partial curve]

**Q.** With `O=C(Nc1ccc(N2CCN(Cc3ccccc3F)CC2)cc1)c1ccc([N+](=O)[O-])o1` as the molecule, how does the Potency read?
**A.** inconclusive: 5.62 µM [inhibitor, partial curve]

**Q.** Which “activity change, negative = inhibition” value does the source give for `O=C1CCCN1CCCN1CC(C(=O)N(CCO)Cc2ccccc2)CCC1=O` (stereo not drawn) here?
**A.** inactive: 5.58%

**Q.** Which Potency does the source give for `CC(C)CCSc1cc(NCCO)c([N+](=O)[O-])c2nonc12` here?
**A.** inconclusive: 3.55 µM [inhibitor, full curve, poor fit]

**Q.** Which Potency does the source give for `COc1ccccc1NC(=O)C1=C(C)Nc2ncnn2C1c1ccccc1C(=O)O` (stereo not drawn) here?
**A.** inconclusive: 6.31 µM [activator, single point]

**Q.** With `Cc1onc(-c2ccccc2)c1-c1nnc(COC(=O)c2ccc(O)cc2)o1` as the molecule, how does the Potency read?
**A.** inconclusive: 35.5 µM [inhibitor, partial curve, poor fit]

**Q.** For `CCC(=C(c1ccc(OC)cc1)c1ccc(OC)cc1)c1cn(CC(O)CN(CCO)CCO)c2ccccc12` (stereo not drawn), which Potency is on record?
**A.** inconclusive: 25.9 µM [inhibitor, partial curve, poor fit]

**Q.** For `CC(C)n1nnc2c(=O)oc3ccccc3c21`, which “activity change, negative = inhibition” value is on record?
**A.** inactive: 7.86%

**Q.** With `COc1cccc(CNC(=O)c2cc3c(s2)-c2ccccc2OC3)c1` as the molecule, how does the Potency read?
**A.** inconclusive: 35.5 µM [inhibitor, single point]

**Q.** For `Cc1cccc(C(=O)Nc2nc(C)c(C(=O)Nc3ccc4c(c3)CCC4)s2)c1`, which Potency is on record?
**A.** inconclusive: 20.6 µM [inhibitor, partial curve, poor fit]

**Q.** With `CCC(=O)NC1=C(Nc2ccc(N)cc2)C(=O)c2ccccc2C1=O` as the molecule, how does the Potency read?
**A.** inconclusive: 1.58 µM [activator, partial curve]

**Q.** With `CCN(CC(=O)NCc1ccc(Cl)cc1)C(=O)CSc1ccc(Br)cc1` as the molecule, how does the Potency read?
**A.** inconclusive: 22.4 µM [inhibitor, partial curve, poor fit]

**Q.** Which Potency does the source give for `CCOC(=O)c1c(NC(=O)C(Sc2ccccc2)c2ccccc2)sc(C(=O)N(C)C)c1C` (stereo not drawn) here?
**A.** inconclusive: 35.5 µM [inhibitor, partial curve, poor fit]

**Q.** For `CCc1ccc(NC(=O)C(=S)NC2CCCCC2)cc1`, which Potency is on record?
**A.** inconclusive: 3.98 µM [activator, single point]

**Q.** With `CCOC(=O)C1=C(C)NC(C)=C(C(=O)OCCNC(=O)c2cccnc2)C1c1cccc([N+](=O)[O-])c1` (stereo not drawn) as the molecule, how does the Potency read?
**A.** inconclusive: 0.82 µM [inhibitor, full curve, poor fit]

**Q.** With `COc1cccc(CNC(=O)C2CCC(=O)N(CC3CCCCC3)C2)c1OC` (stereo not drawn) as the molecule, how does the Potency read?
**A.** inconclusive: 35.5 µM [inhibitor, single point]

**Q.** Which Potency does the source give for `COc1cccc(C2=C[C@H](c3ccccc3)n3nnnc3N2)c1` here?
**A.** inconclusive: 3.66 µM [inhibitor, full curve]

**Q.** With `Cc1c(NC(=O)c2cc(-c3ccccc3)nc3ccccc23)c(=O)n(-c2ccccc2)n1C` as the molecule, how does the Potency read?
**A.** inconclusive: 12.6 µM [inhibitor, single point]

**Q.** With `COCCn1c(=NC(=O)C(C)(C)C)sc2cc([N+](=O)[O-])ccc21` as the molecule, how does the “activity change, negative = inhibition” value read?
**A.** inactive: 23.6%

**Q.** For `Cc1nc2c(C(=O)NCCC3=CCCCC3)c[nH]n2c(=O)c1Cl`, which Potency is on record?
**A.** inconclusive: 0.092 µM [inhibitor, partial curve, poor fit]

**Q.** For `O=C(N/N=C/c1cccc([N+](=O)[O-])c1O)c1cccs1`, which Potency is on record?
**A.** inconclusive: 35.5 µM [inhibitor, single point]
